{"source": "PubChem BioAssay AID504444", "about": "(National Center for Advancing Translational Sciences (NCATS), 2011)", "note": "Out of some 360,000 compounds screened, about 7,500 (2.1%) were called active. This list was built around the results that the source calls inconclusive (neither active nor inactive); the mix of calls is not that of the screen. Calls come from the whole dose curve; as a rule, active = well fitted inhibition curve with a large enough effect; inconclusive = small, poorly fitted or top-dose-only effect, or effect the other way; inactive = flat fitted curve, though single readings scatter. Potencies beside an inconclusive call are fits to weak or partial responses and may not hold up. Potency is the fitted concentration of half-maximal effect."}
{"assay": "Nrf2 qHTS screen for inhibitors; note: nearly all actives have a fitted effect of over 60% in size", "details": "A549 ARE-Fluc reporter, luciferase luminescence, 18-24 h; series mostly up to 46 µM", "in_short": "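Quantitative HTS in A549 cells stably bearing an antioxidant response element-firefly luciferase construct. Inhibition of Nrf2-driven transcription was scored by luminescence after 18-24 h of compound exposure at 37 °C.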"}
{"smiles": "COc1ccc(CN(C)C(=O)C2CC(=O)N(c3ccc4c(c3)OCCO4)C2)c(OC)c1", "note": "(configuration not stated)", "Potency": "inconclusive: 29.1 µM [falling, single point]"}
{"smiles": "O=C(NCCOc1ccccc1Cl)c1cccc2c1C(=O)c1ccc(Cl)cc1S2(=O)=O", "Potency": "inconclusive: 25.9 µM [falling, single point]"}
{"smiles": "COc1ccc(OC)c(Cc2nnc(CCC(=O)NC3CCCC3)o2)c1", "Potency": "inconclusive: 18.4 µM [activator, partial curve]"}
{"smiles": "Cc1cc(/C=C2/NC(=O)N(c3ccccc3)C2=O)c(C)n1-c1cccnc1", "Potency": "inconclusive: 16.4 µM [activator, partial curve]"}
{"smiles": "C/C(=N\\OCC(=O)Nc1ccc(F)c(F)c1F)c1cc2ccccc2o1", "Potency": "inactive"}
{"smiles": "COC(=O)c1ccc(C2Nc3ccc(/C(C)=N/NC(=O)C(OC)c4ccccc4)cc3C3C=CCC32)cc1", "note": "(configuration not stated)", "Potency": "inactive"}
{"smiles": "CC1CCN(C(=O)COC(=O)c2ccc(Br)o2)CC1", "Potency": "inconclusive: 5.8 µM [activator, full curve]"}
{"smiles": "CN(CC(=O)NCCN1CCOCC1)S(=O)(=O)c1ccc(Cl)cc1", "Potency": "inconclusive: 1.84 µM [falling, partial curve, poor fit]"}
{"smiles": "O=C(NCCc1ccccc1)C(=O)c1c(-c2ccccc2)[nH]c2ccccc12", "Potency": "inconclusive: 8.2 µM [falling, partial curve, poor fit]"}
{"smiles": "C/C=C1\\COC(C(=O)NCCCN2CCCC2=O)(C(F)(F)F)C=C1C=C(C)C", "note": "(configuration not stated)", "Potency": "inactive"}
{"smiles": "CCOC(=O)c1c(C)nn(-c2ccc(NC(=O)/C=C/C(=O)O)cc2)c1C", "Potency": "inconclusive: 4.11 µM [falling, partial curve, poor fit]"}
{"smiles": "COc1ccc(C(=O)N/C(=C\\c2ccco2)C(=O)OCc2ccco2)cc1", "Potency": "inconclusive: 23.1 µM [activator, single point]"}
{"smiles": "C(=N\\Nc1ccc2nncn2n1)/c1ccccn1", "Potency": "inconclusive: 6.51 µM [falling, partial curve]"}
{"smiles": "Cc1noc(C)c1S(=O)(=O)N1CCC(C(=O)N2CCN(c3cccc(C(F)(F)F)c3)CC2)CC1", "Potency": "active: 18.4 µM"}
{"smiles": "O=C(Cc1nc2ccccc2[nH]c1=O)c1ccccc1", "Potency": "inconclusive: 10.3 µM [activator, partial curve]"}
{"smiles": "O=C(c1ccc(S(=O)(=O)Cc2cc(F)ccc2F)c([N+](=O)[O-])c1)N1CCCC1", "Potency": "inconclusive: 20.6 µM [falling, single point]"}
{"smiles": "Cc1ccsc1C(=O)OCC(=O)c1cc(C)n(C)c1C", "Potency": "inconclusive: 1.46 µM [activator, partial curve]"}
{"smiles": "Cc1cc(C(=O)O)ccc1N/C=C1\\CCCC(C)C1=O", "note": "(configuration not stated)", "Potency": "inconclusive: 0.58 µM [activator, full curve, poor fit]"}
{"smiles": "COC(=O)c1ccccc1NC(=O)c1cc(C2CC2)on1", "Potency": "inconclusive: 29.1 µM [activator, partial curve, poor fit]"}
{"smiles": "O=C(CCS(=O)(=O)c1ccccc1)N(CCCN1CCOCC1)c1nc2ccc(F)cc2s1", "Potency": "inactive"}
{"smiles": "CC(=O)n1c(Cl)c(NC(=O)CCl)c2ccccc21", "Potency": "inconclusive: 20.6 µM [falling, single point]"}
{"smiles": "Cc1ccc(S(=O)(=O)N(C)C)cc1NC(=O)COC(=O)C1CC1", "Potency": "inactive"}
{"smiles": "O=C(NCC(=O)N1CCN(c2ncccn2)CC1)c1cccs1", "Potency": "inconclusive: 16.4 µM [activator, single point]"}
{"smiles": "CCCn1c(C)nc2c(c1=O)c1nc3ccccc3nc1n2CCC1=CCCCC1", "Potency": "inconclusive: 3.66 µM [falling, single point]"}
{"smiles": "O=C(N/N=C/c1ccc(F)cc1)c1sccc1OCc1ccc(F)cc1", "Potency": "inconclusive: 32.6 µM [falling, single point]"}
{"smiles": "CCOc1ccccc1CNc1nc2nc(C)cc(C)n2n1", "Potency": "inconclusive: 23.1 µM [activator, partial curve, poor fit]"}
{"smiles": "O=C1c2ccc3c4c(ccc(c24)C(=O)N1c1cccc(O)c1)CC3", "Potency": "inactive"}
{"smiles": "N#Cc1ccc(Oc2ccc(-c3cnc4ccccc4n3)cc2)cc1C#N", "Potency": "inactive"}
{"smiles": "O=C(COC(=O)c1ccccn1)Nc1nc(-c2ccccc2)cs1", "Potency": "inconclusive: 29.1 µM [activator, single point]"}
{"smiles": "CCc1ccc(OCC(=O)NC(NC(=S)Nc2ccc(Cl)cc2)C(Cl)(Cl)Cl)cc1", "note": "(configuration not stated)", "Potency": "inconclusive: 29.1 µM [falling, single point]"}
{"smiles": "Cc1ccccc1Nc1c([N+](=O)[O-])cncc1[N+](=O)[O-]", "Potency": "inactive"}
{"smiles": "O=c1c2c3c(sc2nc2n1CCCS2)CCCC3", "Potency": "inconclusive: 23.1 µM [activator, single point]"}
{"smiles": "COc1cc(Cl)ccc1OCc1cc(C(=O)N2C[C@@H]3CCC[C@H]2C3)no1", "Potency": "inconclusive: 0.517 µM [activator, full curve, poor fit]"}
{"smiles": "CC(C)Oc1ccc(-c2nc3c(C#N)c[nH]n3c2NC2CCCCC2)cc1", "Potency": "inconclusive: 29.1 µM [activator, single point]"}
{"smiles": "Cc1ccc(C(=O)NCCc2cc3ccc(C)c(C)c3[nH]c2=O)cc1[N+](=O)[O-]", "Potency": "inactive"}
{"smiles": "CCCN(CC(=O)Nc1ccccc1OC)CC(=O)c1c(N)n(Cc2ccccc2)c(=O)n(C)c1=O", "Potency": "active: 13 µM"}
{"smiles": "S=c1[nH]nc(-c2cc(-c3ccccn3)nc3ccccc23)o1", "Potency": "inactive"}
{"smiles": "CN1CCN(C(=O)c2ccc(S(=O)(=O)Nc3ccccc3)cc2)CC1", "Potency": "inactive"}
{"smiles": "COc1ccc(CCNC(=O)CSc2ncc(C(=O)Nc3ccccc3)c(=O)n2C)cc1", "Potency": "inconclusive: 5.8 µM [activator, full curve]"}
{"smiles": "CCN(Cc1ccccc1)C(=O)CCc1nnc(CCCc2ccccc2)o1", "Potency": "inconclusive: 29.1 µM [activator, single point]"}
{"smiles": "NNc1ncnc2c1cnn2-c1ccccc1", "Potency": "inconclusive: 10.3 µM [activator, partial curve, poor fit]"}
{"smiles": "COc1ccc(OC)c(CCNC(=O)Cn2ncc3c([nH]c4ccccc43)c2=O)c1", "Potency": "inconclusive: 29.1 µM [activator, single point]"}
{"smiles": "CCn1cc2nc(SCC(=O)Nc3ccccc3C(F)(F)F)n(Cc3ccc(C)cc3)c(=O)c2n1", "Potency": "inactive"}
{"smiles": "Cc1cc(C)c(S(N)(=O)=O)c(C)c1N(C)S(=O)(=O)c1ccc(Cl)cc1", "Potency": "inconclusive: 16.4 µM [falling, partial curve, poor fit]"}
{"smiles": "c1nc(NCc2ccoc2)c2cc(-c3ccc4c(c3)OCO4)ccc2n1", "Potency": "inactive"}
{"smiles": "Cc1cccc(C)c1NC(=O)c1sc(-n2nc(C)c(Cc3ccccc3)c2C)nc1C", "Potency": "inactive"}
{"smiles": "O=C(N/N=C/c1cccc2ccccc12)c1cccnc1", "Potency": "inactive"}
{"smiles": "Cc1cc(OCC(=O)N(Cc2ccc(N(C)C)cc2)CC2CCCO2)ccc1Cl", "note": "(configuration not stated)", "Potency": "inconclusive: 18.4 µM [falling, partial curve, poor fit]"}
{"smiles": "CC(C)c1ccc2oc(-c3ccc(N)cc3)nc2c1", "Potency": "inconclusive: 0.651 µM [activator, partial curve]"}
{"smiles": "Cc1cccc(NCc2ccc(Br)cc2)n1", "Potency": "inconclusive: 6.51 µM [activator, full curve]"}
{"smiles": "CCOC(=O)C1=C(C)Nc2ccccc2N/C1=N\\S(=O)(=O)c1cccc(Cl)c1", "Potency": "inconclusive: 32.6 µM [falling, single point]"}
{"smiles": "COc1ccc(OC)c(Cc2nnc(CCC(=O)N3CCCCC3c3nccs3)o2)c1", "note": "(configuration not stated)", "Potency": "inconclusive: 13 µM [activator, partial curve]"}
{"smiles": "Clc1ccc(-c2cnc(Oc3ccccc3)nc2)cc1", "Potency": "inconclusive: 29.1 µM [activator, single point]"}
{"smiles": "Cc1sc(=NC(=O)c2ccco2)n(C)c1-c1ccc(Cl)cc1", "Potency": "inconclusive: 2.06 µM [activator, full curve, poor fit]"}
{"smiles": "O=C(Nc1ccccc1)NC1CCCCC1", "Potency": "inconclusive: 13 µM [activator, partial curve, poor fit]"}
{"smiles": "COc1cccc(CN2C(=O)C3(C(C#N)=C(N)OC4=C3C(=O)CCC4)c3ccccc32)c1", "note": "(configuration not stated)", "Potency": "inconclusive: 13 µM [falling, partial curve]"}
{"smiles": "CCOC(=O)c1c2c3c(cccc3n(C)c1=O)C(=O)c1ccccc1-2", "Potency": "inactive"}
{"smiles": "COc1cccc(-c2nc(S(=O)(=O)c3ccc(C)cc3)c(N3CCCCC3)o2)c1", "Potency": "inconclusive: 18.4 µM [falling, partial curve, poor fit]"}
{"smiles": "CCN(Cc1ccccc1)C(=O)c1ccc(C(=O)N(CC)Cc2ccccc2)cc1", "Potency": "inconclusive: 32.6 µM [falling, single point]"}
{"smiles": "O=C(CNC(c1ccccc1)c1ccccc1)Nc1ccccc1F", "Potency": "inconclusive: 3.66 µM [falling, partial curve, poor fit]"}
{"smiles": "Nc1c(Nc2ccccc2)c2ccccc2oc1=O", "Potency": "inconclusive: 10.3 µM [falling, partial curve, poor fit]"}
{"smiles": "CCc1nc2sc(C(C)=O)c(N)c2c2c1CCCC2", "Potency": "inconclusive: 18.4 µM [falling, partial curve]"}
{"smiles": "O=C(Nc1nc2c(s1)CN(Cc1ccccc1)CC2)c1cccc(S(=O)(=O)N2CCc3ccccc32)c1", "Potency": "inconclusive: 9.2 µM [falling, partial curve]"}
{"smiles": "Nc1nn(S(=O)(=O)c2ccccc2)cc1-c1ccc([N+](=O)[O-])cc1", "Potency": "inconclusive: 16.4 µM [falling, partial curve, poor fit]"}
{"smiles": "CCCNC(=O)CCc1c(C)nc2c(c(C)nn2-c2ccc(C)cc2)c1C", "Potency": "inconclusive: 0.0651 µM [activator, full curve, poor fit]"}
{"smiles": "COC(=O)c1ccc(C(=O)OC)c(NC(=O)c2ccc(-c3ccccc3)s2)c1", "Potency": "inconclusive: 29.1 µM [activator, single point]"}
{"smiles": "O=C(NC1CCCCC1)N1CCC(n2c(=O)[nH]c3ccccc32)CC1", "Potency": "inconclusive: 29.1 µM [falling, single point]"}
